The list shows a part of the results. Shown are side measurements of this screen, not its main read-out; they come without a call. Compounds called inactive in the main read-out are mostly missing here. Words in brackets tell the shape of the fitted curve; partial curves, single points and poor fits give uncertain potencies.
Experiment: qHTS Assay for Lipid Storage Modulators in Drosophila S3 Cells;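 on cell number change: cells counted by Cell Tracker Red CMTPX staining in the red channel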
Conditions: BODIPY lipid droplet fluorescence, 18-24 h; for cell number change: measured here: cell count max response, cells fed with added oleic acid
In short: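 Drosophila S3 cells got compounds at several concentrations plus oleic acid (400 uM solution). Laser-scanning cytometry with 488 nm excitation read lipid droplets at 500-530 nm and cells at 575-640 nm. Percent activity was relative to 20 uM Triacsin C.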

[1] = measured here: cell number channel AC50, cells fed with added oleic acid
[2] = measured here: lipid fluorescence (Fed channel) AC50, cells fed with added oleic acid

Structure (SMILES)	cell number change [%]	AC50 [1]	AC50 [2]
O=C(NC1CC2CCC(C1)N2C(=O)NC1CCCCC1)NC12CC3CC(CC(C3)C1)C2 (stereo unspecified)	-9.86	0.0058 µM [falling, full curve, poor fit]	0.13 µM [falling, full curve, poor fit]
CC(=O)c1ccc(N(C(=O)CNC(=O)c2cccs2)C(C(=O)NCC2CCCO2)c2ccccc2)cc1 (stereo unspecified)	9.52	0.206 µM [rising, full curve, poor fit]	29.1 µM [falling, single point]
COc1ccccc1-c1nnc(N(C)C(=O)C2CCCO2)s1 (stereo unspecified)		2.59 µM [rising, partial curve]	18.4 µM [rising, partial curve]
Cc1ccc(NC(=O)/C=C/c2ccc3c(c2)OCO3)cc1S(=O)(=O)N1CCOCC1	-43.7	25.9 µM [falling, single point]	0.058 µM [falling, full curve]
COc1ccc2nc3oc(C(=O)NCc4cccs4)cc3cc2c1	9.77		
COCCCNC(=O)/C=C/c1c(Cl)cccc1Cl			0.82 µM [rising, full curve, poor fit]
COc1cccc(-n2cnc3c(sc4nc(N5CCOCC5)c5c(c43)CCCC5)c2=O)c1	5.19	2.31 µM [rising, single point]	6.51 µM [rising, single point]
Cc1cc(C)n(-c2ccc(C(=O)Nc3nnc(C)s3)cc2)n1			0.58 µM [rising, single point]
Cc1cc(C(=O)N2CCCC(N3CCN(c4cccc(Cl)c4)CC3)C2)n(C)n1 (stereo unspecified)	42.2	3.66 µM [rising, full curve]	
COc1cc(NC(=O)Cc2ccccc2)ccc1NC(=O)Cc1ccccc1	37	20.6 µM [rising, single point]	0.82 µM [rising, full curve]
CN(c1ccc(OCC(=O)N2CCCCC2)cc1)S(=O)(=O)c1cccs1	78.9	20.6 µM [rising, partial curve, poor fit]	3.66 µM [rising, single point]
O=C(CSc1nnc2sc3ccccc3n12)N1CCN(c2ccccc2)CC1	271	29.1 µM [rising, single point]	
CCOc1cc(C(=O)N/N=C(\C)Cc2ccc(OC)cc2)cc(OCC)c1OCC	6.38		
Cc1ccc(NS(=O)(=O)c2ccc3[nH]c(=O)oc3c2)cc1Cl	-33.1	13 µM [falling, partial curve]	0.651 µM [falling, full curve]
COC(=NC(C)C)NC(C)C	5.44		3.66 µM [falling, full curve]
Cc1c(OC(C(=O)O)c2ccccc2)ccc2c1oc(=O)c1ccccc12 (stereo unspecified)	15.5		29.1 µM [rising, single point]
C/C(=N\NC(=O)Cc1ccc(Cl)cc1)c1ccc(F)cc1	-11.3		6.51 µM [falling, single point]
Cc1[nH]n(-c2ccc([N+](=O)[O-])cc2)c(=O)c1C=NCCN1CCN(C(=O)c2ccccc2)CC1	81.7	14.6 µM [rising, partial curve]	20.6 µM [rising, partial curve]
COc1ccccc1OCc1cc(C(=O)N2CC3C[C@@H]4CC2C[C@H](C3)C4)no1	-50.5	23.1 µM [falling, partial curve]	20.6 µM [falling, single point]

Structure (SMILES)	cell number change [%]	AC50 [1]	AC50 [2]
Clc1cccc(CSc2nc3ccncc3[nH]2)c1	1.44		29.1 µM [rising, single point]
NC(=O)CN1C(=O)C2CCCCN2C(=O)c2ccccc21 (stereo unspecified)	-1.26		4.11 µM [rising, single point]
Cc1ccc(-n2nc3c(=O)n(CCCC(=O)NCc4ccc(F)cc4)nc(C)c3c2C)cc1	5.34		11.6 µM [falling, single point]
COc1ccc(OCC2c3cc(OC)c(OC)cc3CCN2C(=O)C(C)C)cc1 (stereo unspecified)	-2.22		29.1 µM [falling, single point]
O=C(NNC(=O)c1ccccc1Br)c1ccccc1Cl	-38	29.1 µM [falling, single point]	
CC(C)n1cc(/C=C/c2cc[n+](C)cc2)c2ccccc21	-80.7	29.1 µM [falling, single point]	8.2 µM [falling, partial curve]
CC(C)COc1ccc(C(=O)N/C(=C\c2cccc([N+](=O)[O-])c2)C(=O)O)cc1	-1.85		0.651 µM [falling, single point]
CCn1c(N2CCC(Cc3ccccc3)CC2)nc2c1c(=O)[nH]c(=O)n2C	-11.2		
NC(=O)NCCN1CCN(c2ncc(C(F)(F)F)cc2Cl)CC1	-29.9	0.58 µM [falling, full curve, poor fit]	
CSc1nsc(SCC(=O)Nc2ccc(O)c(C(=O)O)c2)n1	10.3		29.1 µM [rising, single point]
CC(Sc1ccc(S(=O)(=O)N2CCOCC2)cc1[N+](=O)[O-])C(=O)O (stereo unspecified)	55.9	0.116 µM [rising, full curve]	0.0731 µM [rising, full curve, poor fit]
CCOc1cc(-c2noc(N)c2C(=O)OC)cc(OCC)c1OCC	-31.7	0.184 µM [falling, full curve]	0.231 µM [falling, full curve, poor fit]
Cc1cc([N+](=O)[O-])cc2c1NCC1CC=CC21 (stereo unspecified)			29.1 µM [falling, single point]
Cc1nc(N)c(Cc2ccc(Cl)cc2Cl)c(N)n1	-14.6		0.58 µM [falling, full curve, poor fit]
O=P1(c2ccccc2)C=Cn2c1cc1c2CCCC1 (stereo unspecified)	3.68		
c1ccc(CSc2nc3ncccn3n2)cc1	-9.84		25.9 µM [rising, single point]
O=c1c2ccccc2oc2cc(OCc3ccc(F)cc3)cc(O)c12	24.3		
COc1ccc(S(=O)(=O)N2CCN(C(=O)CCC3CCCC3)CC2)cc1	8.83		6.51 µM [rising, partial curve, poor fit]
NC(=O)c1c[nH]c2ccccc12		0.461 µM [falling, single point]	

An excerpt from above with just cell number change [%] and AC50 [2]:
Structure (SMILES)	cell number change [%]	AC50 [2]
Clc1cccc(CSc2nc3ccncc3[nH]2)c1	1.44	29.1 µM [rising, single point]
Cc1ccc(-n2nc3c(=O)n(CCCC(=O)NCc4ccc(F)cc4)nc(C)c3c2C)cc1	5.34	11.6 µM [falling, single point]

Next part

Structure (SMILES)	cell number change [%]	AC50 [1]	AC50 [2]
O=C(Cn1c2[n+](c3ccc(C(F)(F)F)cc31)CCCCC2)c1cccc([N+](=O)[O-])c1		0.58 µM [rising, single point]	0.58 µM [rising, single point]
CC1(C)Cc2c(c(N3CCOCC3)nc3snc(Br)c23)CO1	8.12		
CC[C@@H](C)[C@@H](C(=O)N1CCN(C(=O)OC(C)(C)C)CC1)n1cc(CCC(=O)O)nn1			6.51 µM [falling, single point]
O=[N+]([O-])c1ccc2c(c1)nc1n2CCN(CC2CCCO2)C1 (stereo unspecified)	12		29.1 µM [falling, partial curve]
CCCCCCCCCC[n+]1cccc2c3ccccc3ccc21	-84.1	9.2 µM [falling, partial curve]	5.17 µM [falling, partial curve]
Cc1ccc(CCNC(=O)C2CCN(S(=O)(=O)c3cccc4cccnc34)CC2)cc1			5.8 µM [rising, single point]
C/C(=C/c1ccccc1)C(=O)N1CCN(c2ccccc2)CC1	9.34		20.6 µM [rising, partial curve]
CC(NS(=O)(=O)c1ccccc1)C(N)=O (stereo unspecified)	-22.4		4.61 µM [falling, single point]
CCOC(=O)C1CCCN(C(=O)c2cc(-c3ccc(C)cc3)on2)C1 (stereo unspecified)	-0.647		29.1 µM [falling, single point]
O=C(c1cccc2ccccc12)N1CCC(N2CCN(c3ccccc3)CC2)CC1	-0.594	1.84 µM [falling, partial curve, poor fit]	2.06 µM [falling, single point]
COc1ccc(-n2nc(C(=O)NCC(=O)N3CCN(Cc4ccccc4)CC3)c3ccccc3c2=O)cc1OC	24.6		6.51 µM [rising, single point]
CC1CCc2c(sc(NC(=O)C3CCCO3)c2C#N)C1 (stereo unspecified)	21.6	0.461 µM [rising, full curve, poor fit]	
CC(=O)N1CCN(C(=O)Cn2c(=O)oc3ccccc32)CC1	3.94		29.1 µM [falling, single point]
COc1ccc(OC)c(C(C)NC(=O)C23CC4CC(CC(C4)C2)C3)c1 (stereo unspecified)	-17.5		29.1 µM [falling, single point]
CC(C)C(c1nnnn1Cc1ccco1)N1CCN(c2cccc(Cl)c2)CC1 (stereo unspecified)	-13.1		
COc1ccc2c(c1)CCN1C2CCN2C(=O)CCC21 (stereo unspecified)	1.48		0.82 µM [falling, single point]
O=C(CCc1nnc2ccc(N3CCC4(CC3)OCCO4)nn12)N1CCCCC1	9.48	0.00461 µM [rising, full curve, poor fit]	
Cc1ccc(NC(=O)CN(C)C(=O)c2cc(C)on2)cc1	-1.23		29.1 µM [falling, single point]
O=C(CNC(=O)c1ccccc1)N/N=C/c1cc(Br)ccc1O	-26.7	0.731 µM [falling, full curve, poor fit]	2.06 µM [falling, partial curve, poor fit]

Reference: PubChem BioAssay AID2685 (National Center for Advancing Translational Sciences (NCATS), 2010)
